{"source": "PubChem BioAssay AID540276", "about": "(National Center for Advancing Translational Sciences (NCATS), 2011)", "note": "Hit rate of the full screen: of about 300,000 compounds, about 5,400 (1.8%) were called active. This list was built around the results that the source calls inconclusive (neither active nor inactive); the mix of calls is not that of the screen. The call rests on the fitted dose curve; tested in HEK293 cells. Where the call is inconclusive, the potency comes from a doubtful curve fit. On the % scale 0 is the no-effect control and ±100 the full control effect; potency means the concentration at half of the fitted maximal effect."}
{"test": "qHTS for inhibitors of binding or entry into cells for Marburg Virus", "conditions": "Marburg virus pseudotyped entry inhibition, cell reporter; activity change, negative = inhibition: at 37.8 µM (top of the series) unless noted"}
{"smiles": "COc1ccc(OCC(=O)O/N=C(\\N)c2ccc(OC)cc2)cc1", "Potency": "inconclusive: 5.62 µM [inhibitor, single point]"}
{"smiles": "CCOC(=O)c1ccc2c(c1)sc1nc(-c3ccc(OCC)cc3)cn12", "Potency": "inconclusive: 35.5 µM [activator, single point]"}
{"smiles": "COc1ccccc1Cc1nc(-c2ccc(C)cc2)no1", "Potency": "inconclusive: 29.1 µM [inhibitor, single point]"}
{"smiles": "CC(=O)Nc1cc(C(=O)N2CCN(C)CC2)ccc1S(=O)(=O)c1ccc(C)cc1", "activity change, negative = inhibition": "inactive: 16.1%"}
{"smiles": "Cc1cc(C)cc(NC(=O)C2C3C=CC4(O3)C2C(=O)N(CCN2CCCCC2)C4C(=O)NC2CCCCC2)c1", "note": "(stereo not given)", "activity change, negative = inhibition": "inactive: -6.4% [at 46.1 µM]"}
{"smiles": "Cc1cc(C(=O)CSc2cccc[n+]2[O-])c(C)n1-c1ccccc1", "Potency": "inconclusive: 14.1 µM [inhibitor, single point]"}
{"smiles": "CC(C)CN(C#N)c1nc(N2CCOCC2)nc(N2CCOCC2)n1", "Potency": "inconclusive: 0.316 µM [inhibitor, full curve, poor fit]"}
{"smiles": "CC(=O)c1ccc2c3c(cccc13)CC2", "activity change, negative = inhibition": "inactive: 17.4% [at 46.1 µM]"}
{"smiles": "CC[C@@H](CO)Nc1nc(NCc2ccccc2)c2ncn(C(C)C)c2n1", "Potency": "inactive"}
{"smiles": "O=C1c2ccccc2NC(c2ccc(O)cc2)N1/N=C/c1ccc(O)cc1", "note": "(stereo not given)", "Potency": "inconclusive: 1.26 µM [activator, partial curve, poor fit]"}
{"smiles": "CCN(Cc1ccccc1)c1ccc(/C=N/NS(=O)(=O)c2ccc(C)c([N+](=O)[O-])c2)cc1", "activity change, negative = inhibition": "inactive: -8.95%"}
{"smiles": "CC(=O)OC12CC3C[C@H](C1)C(=NO)[C@H](C3)C2", "Potency": "inconclusive: 31.6 µM [activator, single point]"}
{"smiles": "COc1ccc(NC(=O)C2CC(=O)N/C(=N/NC(=O)c3ccc(Cl)cc3)S2)cc1", "note": "(stereo not given)", "activity change, negative = inhibition": "inactive: -13.2% [at 46.1 µM]"}
{"smiles": "CN(C)CCCc1cc(C(=O)Nc2ccc(-c3ccncc3)cc2)ccc1O", "Potency": "inconclusive: 18.3 µM [inhibitor, partial curve, poor fit]"}
{"smiles": "N#Cc1ccc(Oc2cccc3cccnc23)c([N+](=O)[O-])c1", "activity change, negative = inhibition": "inactive: -13.3% [at 46.1 µM]"}
{"smiles": "Cn1cccc1/C=N/NC(=O)CNc1cccc2ccccc12", "Potency": "inconclusive: 35.5 µM [inhibitor, single point]"}
{"smiles": "NS(=O)(=O)c1ccc(CNC(=O)c2ccc(S(=O)(=O)C(F)F)cc2)cc1", "Potency": "inconclusive: 20 µM [inhibitor, partial curve, poor fit]"}
{"smiles": "O=C(CCN1C(=O)c2ccccc2C1=O)Nc1ccc(-c2nc3ccccc3o2)cc1", "Potency": "inactive"}
{"smiles": "Cc1cc(C)c(C#N)c(SCC(=O)Nc2ccc(S(=O)(=O)Nc3ncccn3)cc2)n1", "Potency": "inconclusive: 1.12 µM [inhibitor, single point]"}
{"smiles": "CSc1ccccc1-c1nnc(-c2ccc(Cl)cc2)o1", "Potency": "inconclusive: 5.62 µM [activator, single point]"}
{"smiles": "CCCC(=O)Nc1cccc(-c2nc3cc(C)c(C)cc3o2)c1", "Potency": "inconclusive: 6.31 µM [activator, single point]"}
{"smiles": "CSCCC(NC(=O)c1ccccc1)C(=O)N1CCN(C(c2ccccc2)c2ccccc2)CC1", "note": "(stereo not given)", "activity change, negative = inhibition": "inactive: -28%"}
{"smiles": "COc1cc(C(=O)N2CCN(c3ccccn3)CC2)cc(OC)c1OC", "activity change, negative = inhibition": "inactive: 14.4% [at 46.1 µM]"}
{"smiles": "O=C(CSc1nnc(CNC(=O)c2ccc(F)cc2)o1)NCc1ccc2c(c1)OCO2", "Potency": "inconclusive: 14.1 µM [activator, partial curve, poor fit]"}
{"smiles": "CC(=O)Nc1ccc(CC#N)cc1", "Potency": "inconclusive: 17.8 µM [activator, partial curve, poor fit]"}
{"smiles": "CCCCn1c(N)c(N(CCOC)C(=O)C2CCN(S(=O)(=O)c3ccc(C)cc3C)CC2)c(=O)[nH]c1=O", "activity change, negative = inhibition": "inactive: 17.1%"}
{"smiles": "Cc1cccc(N(CC(=O)NC2CCCC2)C(=O)CNC(=O)c2ccco2)c1C", "activity change, negative = inhibition": "inactive: -7.67% [at 46.1 µM]"}
{"smiles": "Cc1ccc(S(=O)(=O)CCc2nc3ccccc3[nH]2)cc1C", "activity change, negative = inhibition": "inactive: -21.4% [at 46.1 µM]"}
{"smiles": "C/C(Nc1cccc(F)c1)=C(/C#N)C(N)=O", "activity change, negative = inhibition": "inactive: 0.666%"}
{"smiles": "Cc1ccc(NC(=O)CCCCCCCCCCC2COCCO2)c(C)c1", "note": "(stereo not given)", "Potency": "inconclusive: 14.1 µM [activator, single point]"}
{"smiles": "CCN(CC)S(=O)(=O)c1ccc(N2CCOCC2)c(NC(=O)C(=O)c2c(-c3ccccc3)cc3ccccn23)c1", "Potency": "inconclusive: 29.1 µM [inhibitor, single point]"}
{"smiles": "Cc1nc2nc3c(cn2n1)C(=O)CC(c1ccccc1)C3", "note": "(stereo not given)", "Potency": "inconclusive: 0.794 µM [inhibitor, single point]"}
{"smiles": "Cc1cc(C(=O)CSc2nc3ccccc3n2CCC#N)c(C)n1Cc1cccs1", "Potency": "inconclusive: 29.1 µM [activator, single point]"}
{"smiles": "CCc1ccc(N2CC(C(=O)NNC(=O)c3ccc(F)cc3)CC2=O)cc1", "note": "(stereo not given)", "activity change, negative = inhibition": "inactive: -4.58% [at 46.1 µM]"}
{"smiles": "COc1ccc(-c2[nH]ncc2/C=C(/C#N)C(=O)NC2CCCCC2)cc1", "Potency": "inconclusive: 15.8 µM [inhibitor, single point]"}
{"smiles": "Cc1ccc(-c2nnn(C(C)C(=O)N3c4ccccc4CCc4ccccc43)n2)cc1", "note": "(stereo not given)", "Potency": "inconclusive: 11.2 µM [inhibitor, partial curve]"}
{"smiles": "Cc1c(C)n(CCc2ccccc2)c2ncnc(NCCCN(C)C)c12", "Potency": "active: 8.91 µM"}
{"smiles": "Cc1ccc(N=Nc2[nH]c3ccccc3c2O)cc1", "Potency": "inconclusive: 18.4 µM [activator, partial curve]"}
{"smiles": "C=CCn1c(O)c(C(C)=Nc2ccc3c(c2)CCC3)c(=O)[nH]c1=O", "activity change, negative = inhibition": "inactive: 14.1% [at 14.2 µM]"}
{"smiles": "Cc1ccc(C(=O)O/N=C2/CC3CCC2(C)[C@@]3(C)CBr)cc1", "note": "(stereo not given in full)", "Potency": "inconclusive: 0.447 µM [inhibitor, full curve]"}
{"smiles": "CCOc1cc(/C=N/NC(=O)C(=O)NC2CC2)cc(Br)c1O", "Potency": "inconclusive: 6.31 µM [inhibitor, single point]"}
{"smiles": "CN(C(=O)CSc1nc2ccc(NC(=O)COc3ccc(F)cc3)cc2s1)c1ccccc1", "Potency": "inconclusive: 17.8 µM [inhibitor, partial curve, poor fit]"}
{"smiles": "O=C(Cc1c(Cl)cccc1Cl)OCc1ccccn1", "activity change, negative = inhibition": "inactive: 4.83% [at 46.1 µM]"}
{"smiles": "Cc1cc(NC(=O)C2CC(=O)N(c3cccc(C)c3C)C2)no1", "note": "(stereo not given)", "Potency": "inconclusive: 17.8 µM [activator, single point]"}
{"smiles": "O=C(N/C(=C/c1ccc(Cl)cc1)c1nc2ccccc2[nH]1)c1ccco1", "Potency": "inconclusive: 5.62 µM [inhibitor, single point]"}
